For 39 molecules, cell death results are on record in the supplement of paper PMC12872613.

Structures are written as SMILES. Counter-ions that a name gives are not always drawn. This is one part of the list. Cut-off read from the data, not from the text of the source: active = 0.7 or more and inactive = the rest. Single values are uncertain, as repeats are few or missing.

The test deals with MiaPaCa-2 CLSA-25. The test is described as follows: cell death relative to DMSO vehicle (fraction); higher = more cytotoxic. The conditions noted are these: 5 µM; treatment time 48 h; medium cystine 25 µM.
`CCC(=O)Nc1cccc(Oc2nc(Nc3ccc(N4CCN(C)CC4)cc3OC)ncc2Cl)c1`: the cell death was inactive: 0.183.

Take `COC(=O)/C=C/c1cccc(N(Cc2ccc(-c3ccc(N(C)C)cc3)cc2)C(=O)C2CCCCC2)c1` [Fexaramine]: the cell death was active: 0.781.

`C[C@@H]1C[C@H]2[C@@H]3C[C@H](F)C4=CC(=O)C=C[C@]4(C)[C@@]3(F)[C@@H](O)C[C@]2(C)[C@@]1(O)C(=O)CO` [Flumethasone]: the cell death was inactive: 0.155.

As for `CC(C)(S)C(N)C(=O)O` (racemic) [DL-Penicillamine], the cell death was inactive: 0.03.

Turning to `COc1cc(OC)c(C=C2C(=O)Nc3ccccc32)c(OC)c1`, the cell death is inactive: 0.659.

Regarding `OC[C@H]1O[C@@H](Oc2cc(O)cc(/C=C/c3ccc(O)cc3)c2)[C@H](O)[C@@H](O)[C@@H]1O` [Polydatin], the cell death was inactive: 0.198.

With `C[C@H](CCC(=O)O)[C@H]1CC[C@H]2[C@@H]3CC[C@@H]4C[C@H](O)CC[C@]4(C)[C@H]3CC[C@]12C` [Lithocholic acid], the cell death is inactive: 0.263.

Regarding `C[C@H](CCC(=O)NCC(=O)O)[C@H]1CC[C@H]2[C@@H]3[C@H](O)C[C@@H]4C[C@H](O)CC[C@]4(C)[C@H]3CC[C@]12C` [Glycochenodeoxycholic Acid], the cell death is inactive: 0.605.

On to `COC(=O)c1ccc2c(c1)[nH]c1ncnc(NCCCN3CCCCC3)c12`, for which the cell death was inactive: 0.101.

Take `CC(C)c1nc(CN(C)C(=O)N[C@H](C(=O)N[C@@H](Cc2ccccc2)C[C@H](O)[C@H](Cc2ccccc2)NC(=O)OCc2cncs2)C(C)C)cs1` [Ritonavir]: the cell death is inactive: 0.253.

Take `CN(C)c1ccc(C(c2ccc(N(C)C)cc2)c2cc([N+](=O)[O-])ccc2Cl)cc1`: the cell death is inactive: 0.0097.

For `C[C@H](CCC(=O)O)[C@H]1CC[C@H]2[C@@H]3C(=O)C[C@@H]4CC(=O)CC[C@]4(C)[C@H]3CC(=O)[C@]12C` [Dehydrocholic acid], the cell death was inactive: 0.281.

For the molecule `CC(=O)c1ccc(NC2=C(Cl)C(=O)c3ccccc3C2=O)cc1`, the cell death was active: 0.762.

Turning to `COc1cc(NC(=O)Nc2cccc(CNC(=O)O[C@H]3CCOC3)c2)ccc1-c1cnco1` [Merimepodib], the cell death is active: 0.708.

As to `CC(C)NC(=N)NC(=N)Nc1ccc(Cl)cc1` [Proguanil hydrochloride], the cell death is inactive: 0.474.

For the molecule `Nc1ccccc1S(N)(=O)=O` [2-Aminobenzenesulfonamide], the cell death was inactive: 0.147.

Consider `CCc1nc2c(C)cc(N3CCN(CC(=O)N4CC(O)C4)CC3)cn2c1N(C)c1nc(-c2ccc(F)cc2)c(C#N)s1`, for which the cell death is inactive: 0.391.

As for `CC1(C)[C@@H](O[C@H]2O[C@H](C(=O)O)[C@@H](O)[C@H](O)[C@H]2O[C@@H]2O[C@H](C(=O)O)[C@@H](O)[C@H](O)[C@H]2O)CC[C@]2(C)[C@H]3C(=O)C=C4[C@@H]5C[C@@](C)(C(=O)O)CC[C@]5(C)CC[C@@]4(C)[C@]3(C)CC[C@@H]12` [Ammonium Glycyrrhizinate], the cell death is inactive: 0.105.

For the molecule `NS(=O)(=O)c1cc(Cl)c(Cl)c(S(N)(=O)=O)c1` [Dichlorphenamide], the cell death is active: 0.738.

As for `COc1ccc(NC(=O)c2ccc(C(=N)N(C)C)cc2)c(C(=O)Nc2ccc(Cl)cn2)c1` [Betrixaban maleate], the cell death was inactive: 0.577.

Consider `CCN(CC)CCN(Cc1ccc(-c2ccc(C(F)(F)F)cc2)cc1)C(=O)Cn1c(SCc2ccc(F)cc2)nc(=O)c2c1CCC2` [Darapladib], for which the cell death is active: 0.926.

As to `CC(C)c1noc(N2CCC(COc3ccc(-c4ccc(S(C)(=O)=O)cc4)nc3)CC2)n1`, the cell death is inactive: 0.394.

For `C[C@@H]1C[C@H]2[C@@H]3CCC4=CC(=O)C=C[C@]4(C)[C@@]3(F)[C@@H](O)C[C@]2(C)[C@@]1(O)C(=O)CO` [Dexamethasone], the cell death was inactive: 0.0965.

Regarding `CC1(C)CC[C@]2(C(=O)O[C@@H]3O[C@H](CO)[C@@H](O)[C@H](O)[C@H]3O)CC[C@]3(C)C(=CC[C@@H]4[C@@]5(C)CC[C@H](O[C@@H]6O[C@H](C(=O)O)[C@@H](O)[C@H](O)[C@H]6O)C(C)(C)[C@@H]5CC[C@]43C)[C@@H]2C1` [Chikusetsusaponin IVa], the cell death was inactive: 0.264.

As to `CC(=O)NC[C@H]1CN(c2ccc(N3CCOCC3)c(F)c2)C(=O)O1` [Linezolid], the cell death was inactive: -0.0356.

On to `CC(C)OC(=O)N1CCC(Oc2ncnc3c2cnn3-c2ccc(S(C)(=O)=O)cc2F)CC1`, for which the cell death was inactive: 0.11.

With `Cc1ccccc1C(=O)Nc1ccc(C(=O)N2CCCC(O)c3cc(Cl)ccc32)c(C)c1` (centres undefined) [Tolvaptan], the cell death was inactive: 0.175.

For `Cc1cccc(C)c1OCC(=O)N[C@@H](Cc1ccccc1)[C@@H](O)C[C@H](Cc1ccccc1)NC(=O)[C@H](C(C)C)N1CCCNC1=O` [Lopinavir], the cell death was inactive: 0.177.

As to `OCCN(CCO)c1nc(N2CCCCC2)c2nc(N(CCO)CCO)nc(N3CCCCC3)c2n1` [Dypyridamole], the cell death was inactive: 0.303.

`CC(=O)N1CCN(c2ccc(OCC3COC(Cn4ccnc4)(c4ccc(Cl)cc4Cl)O3)cc2)CC1` (centres undefined) [Ketoconazole]: the cell death is inactive: 0.633.

Consider `COc1ccc(-n2nc(C(N)=O)c3c2C(=O)N(c2ccc(N4CCCCC4=O)cc2)CC3)cc1` [Apixaban], for which the cell death is inactive: 0.0693.

`CC(C)c1nc(N(C)S(C)(=O)=O)nc(-c2ccc(F)cc2)c1/C=C/[C@@H](O)C[C@@H](O)CC(=O)O` [Rosuvastatin]: the cell death is inactive: 0.168.

On to `CC1(C)C(O[C@@H]2OC[C@@H](O)[C@H](O)[C@H]2O)CC[C@]23CC24CC[C@]2(C)[C@@H]([C@@]5(C)CC[C@@H](C(C)(C)O)O5)[C@H](O)C[C@@]2(C)C4C[C@@H](O[C@@H]2O[C@H](CO)[C@@H](O)[C@H](O)[C@H]2O)C13` (some centres undefined) [Astragaloside IV], for which the cell death was inactive: -0.00615.

Consider `Nc1ncccc1-c1nc2ccc(-c3ccccc3)nc2n1-c1ccc(C2(N)CCC2)cc1` [Miransertib], for which the cell death was active: 0.812.

In the case of `CC(C)n1c(/C=C/C(O)CC(O)CC(=O)O)c(-c2ccc(F)cc2)c2ccccc21` (centres undefined) [Fluvastatin sodium salt], the cell death is inactive: 0.646.

Consider `C[Se]CC[C@H](N)C(=O)O` [L-(+)-Selenomethionine], for which the cell death was inactive: 0.267.

On to `CC(C)(Oc1ccc(C(=O)c2ccc(Cl)cc2)cc1)C(=O)O` [Choline Fenofibrate], for which the cell death was active: 0.858.

`CCOC(=O)[C@H](CCc1ccccc1)N[C@@H](C)C(=O)N1[C@H](C(=O)O)C[C@@H]2CCC[C@@H]21` [Ramipril]: the cell death is inactive: 0.0326.

As to `CC[C@H](C)C(=O)O[C@H]1CCC=C2C=C[C@H](C)[C@H](CC[C@@H]3C[C@@H](O)CC(=O)O3)[C@H]21` [Mevastatin], the cell death was active: 0.72.
